Patent US20190119357A1, “MESSENGER RIBONUCLEIC ACIDS FOR THE PRODUCTION OF INTRACELLULAR BINDING POLYPEPTIDES AND METHODS OF USE THEREOF” (ModernaTX, Inc., priority 2015, published 2019)
Some results were stated once for a whole list of compounds, not compound by compound.

Legend:
Type in all cases: cell-based
[1] = tested on: HeLa cells; experiment: MITOTRACKER Red staining for mitochondrial outer membrane permeabilization (MOMP)
[2] = tested on: HeLa cells; experiment: PARP-1 cleavage by SDS-PAGE and Western blotting after transfection of mRNAs encoding SQT-BH3 constructs; conditions: HeLa cells co-transfected with GFP plasmid
Description: The cleavage of PARP-1 was detected by the appearance of a faster-migrating band and concomitant loss of the full-length band by SDS-PAGE and Western blotting. Western blotting with anti-actin antibodies served as a loading control.

[3] = tested on: primary hepatocytes; experiment: Apoptosis induction by MC3 LNP-formulated mRNAs in primary hepatocytes cultured in vitro; conditions: MC3 LNPs
[4] = tested on: HeLa cells; experiment: Long-term live cell imaging of GFP-positive cells after mRNA transfection; conditions: decreased growth rate of GFP-positive cells

B1: SQT-PUMA-BH3: mRNA (SEQ ID NO: 49, FLAG) encoding SQT scaffold with PUMA BH3 domain in N-terminus, fully modified with 1-methyl-pseudouridine (nucleic acid)
chain: ATGATCCCAAGAGAAGAACAGTGGGCACGCGAAATTGGAGCTCAACTCAGACGGATGGCCGACGACCTGAACGCCCAGTACGAGCGGCGGGGACTCTCAGAAGCGAAGCCTGCCACCCCCGAAATCCAGGAAATCGTCGACAAGGTCAAGCCGCAGCTTGAGGAAAAGACCAACGAGACTTACGGAAAACTGGAGGCCGTGCAGTATAAGACCCAAGTGTTGGCCTCCACCAACTACTACATTAAGGTCCGCGCCGGCGATAACAAGTACATGCACCTGAAGGTGTTCAATGGTCCTCCGGGACAGAACGCGGACAGGGTGCTGACTGGCTACCAAGTGGACAAGAACAAGGACGACGAGCTGACGGGCTTCGACTACAAGGATGATGATGACAAA
modifications: FLAG tag, 1-methyl-pseudouridine; Synthetic SQT-PUMA-BH3 mRNA sequence with FLAG epitope tag
MOMP and cell death, time following transfection [1]: ≤ 2 h
cleavage of poly(ADP-ribose) polymerase 1 (PARP-1), time after transfection [2]: ≤ 4 h
induction of apoptosis, time [3]: 4 to 6 h
cell death, time following transfection [4]: ≤ 4 h

B2: SQT-Bim-BH3: mRNA (SEQ ID NO: 50, FLAG) encoding SQT scaffold with Bim BH3 domain in N-terminus (nucleic acid)
chain: ATGATCCCAAGAGACATGCGCCCCGAAATTTGGATCGCCCAGGAGCTCAGACGCATCGGAGATGAATTCAACGCATACTACGCTCGGCGGGGACTCTCAGAAGCGAAGCCTGCCACCCCCGAAATCCAGGAAATCGTCGACAAGGTCAAGCCGCAGCTTGAGGAAAAGACCAACGAGACTTACGGAAAACTGGAGGCCGTGCAGTATAAGACCCAAGTGTTGGCCTCCACCAACTACTACATTAAGGTCCGCGCCGGCGATAACAAGTACATGCACCTGAAGGTGTTCAATGGTCCTCCGGGACAGAACGCGGACAGGGTGCTGACTGGCTACCAAGTGGACAAGAACAAGGACGACGAGCTGACGGGCTTCGACTACAAGGATGATGATGACAAA
modifications: FLAG tag; Synthetic SQT-BIM-BH3 mRNA sequence with FLAG epitope tag
MOMP and cell death, time following transfection [1]: ≤ 2 h
cleavage of poly(ADP-ribose) polymerase 1 (PARP-1), time after transfection [2]: ≤ 4 h
induction of apoptosis, time [3]: 4 to 6 h
cell death, time following transfection [4]: ≤ 4 h
